The values below come from article PMC7819943, “Rice protein-binding microarrays: a tool to detect cis-acting elements near promoter regions in rice”.

By UniProt entry, the sequences of proteins in these tests, tags left out.
UniProt Q0JBA9, entry or part of it: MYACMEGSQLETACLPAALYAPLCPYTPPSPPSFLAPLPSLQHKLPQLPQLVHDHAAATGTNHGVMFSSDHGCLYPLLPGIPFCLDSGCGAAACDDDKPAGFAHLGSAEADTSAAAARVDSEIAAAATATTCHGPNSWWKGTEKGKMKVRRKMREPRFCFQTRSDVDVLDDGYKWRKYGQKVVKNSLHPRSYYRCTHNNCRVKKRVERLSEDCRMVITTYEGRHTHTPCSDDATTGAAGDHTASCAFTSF

Some of the results follow.

The target of the experiment is OsWRKY34 (Oryza sativa, UniProt Q0JBA9 1-250). Nature of the experiment: protein-binding microarray (RPBM); PBS, 2% BSA, 51.3 ng/ul salmon testes DNA, 50 uM zinc acetate, 200 nM TF, 25 C, 1 h; high values mean tight binding. The settings on record: protein: recombinant; tags: N-terminal polyhistidine and DsRed monomer fusion (pET32a); label: CyDye5-dUTP incorporated in the synthesized complementary strand; 3' TTTTT single-stranded linker to array surface; dsDNA, one strand shown. The essentials: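 Binding signal is defined as the fluorescence intensity of each feature in arbitrary units, read on an Axon 4000B scanner. Transcription factors with N-terminal polyhistidine and DsRed fusions came from E. coli BL21-CodonPlus and were purified on Ni–NTA. They were incubated at 200 nM for 1 h at 25 °C on a custom Agilent array that had been made double-stranded with Cy5-dUTP, with 50 µM zinc acetate present, and the array was washed.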
Turning to “GCCATCAAACTTGACGCAACAGCCCATCGTCTGATCCATCCGGAGTCACCTAGTGCAG”, the binding signal is 10000 fluorescence intensity (a.u.).
The value for “ATGATGAGTATATAATTTTTTATTGCATGATTACTGTTCTCGGAGTCACCTAGTGCAG” was 9150 fluorescence intensity (a.u.); that for “CGCACACGCACACACGCACTCGCACTACTCGAACCACGCGCGGAGTCACCTAGTGCAG” was 8950 fluorescence intensity (a.u.); that for “TATGTTTGTTGCACTTTGATTATTTGGGTGTTTCATTATCCGGAGTCACCTAGTGCAG” was 10300 fluorescence intensity (a.u.).
As for “TTTCTAATAATGTGCTGACTCTTGCTATTGGATTAACTATCGGAGTCACCTAGTGCAG”, the figure is 9690 fluorescence intensity (a.u.).
Regarding “CCAATCACAACATTCTTCCATTTAATTCTACCAACATTTTCGGAGTCACCTAGTGCAG”, the binding signal is 8040 fluorescence intensity (a.u.).
As for “TGATCCATCCCAGTCCCAGTACCCCACACGCAACTGGCTCCGGAGTCACCTAGTGCAG”, the figure is 8720 fluorescence intensity (a.u.); as for “TACTTTTGCTGGTTTTATCAATCCAAACCATGAATGCTGCCGGAGTCACCTAGTGCAG”, 8050 fluorescence intensity (a.u.).
The value for “GTCGATGCGTGTTTCCTGTTCGTTTGGGTGGCCTGATGCCCGGAGTCACCTAGTGCAG” was 8840 fluorescence intensity (a.u.).
As for “ATCGCCACACTTATAACATGCCATATTTTCTTTTAACTTACGGAGTCACCTAGTGCAG”, the figure is 9690 fluorescence intensity (a.u.).
“TTCTTTCTGTGCATTCCAGGTCGGATTTCGGGCACTTCGCCGGAGTCACCTAGTGCAG”: the binding signal was 9120 fluorescence intensity (a.u.).
The value for “CCTCTCTAGATCTTTTCCCTCTAAACAATTCAGAATTTTCCGGAGTCACCTAGTGCAG” was 8850 fluorescence intensity (a.u.); that for “CACCGTTGCCCGCCTACCACTACTACCACTGATCACACTTCGGAGTCACCTAGTGCAG” was 14300 fluorescence intensity (a.u.).
The value for “TATTTAATTACCTCACGCACATTCTTTTCTCAGCAAATCACGGAGTCACCTAGTGCAG” was 8290 fluorescence intensity (a.u.); that for “CTACACACAGCTTAGTCCTGCTACCTCGCCGGCGCAAACGCGGAGTCACCTAGTGCAG” was 9340 fluorescence intensity (a.u.); that for “TACCCGCAGCCACCCGCCGCTGACGGTCAACCCACCTTCGCGGAGTCACCTAGTGCAG” was 8150 fluorescence intensity (a.u.).
As for “CTCTCTCGTCTCTCTCTCTCTCTCTCACTCTCAGCTCTCTCGGAGTCACCTAGTGCAG”, the figure is 8360 fluorescence intensity (a.u.); as for “TCTCGTCCGACGCTTCAACCCGCACCGATCCTGCGCCACCCGGAGTCACCTAGTGCAG”, 8740 fluorescence intensity (a.u.); as for “TCTCCACTCCTACTTCCCGGTCTCGAGCTACACCAAACACCGGAGTCACCTAGTGCAG”, 8710 fluorescence intensity (a.u.).
Regarding “TTCTTAATACTTATTGTTCTATTGTTCTAGTAGTCCACCGCGGAGTCACCTAGTGCAG”, the binding signal was 11500 fluorescence intensity (a.u.).
As for “TCTTATTCTTAGACTCGTTAATGCATTTTTATATTTTACACGGAGTCACCTAGTGCAG”, the figure is 10200 fluorescence intensity (a.u.); as for “TGACGATGGCCCATCTTTTCCTGTTCAATCTCATCCGTCTCGGAGTCACCTAGTGCAG”, 8270 fluorescence intensity (a.u.).
Turning to “GATGTCGGTAGTTGGCTTTCTTTTTTGTTGCTCGGACTGACGGAGTCACCTAGTGCAG”, the binding signal was 8560 fluorescence intensity (a.u.).
As for “CTTGTTCTTGTTCTTGTTCTTGTTGCAAAGATTCGAGAGACGGAGTCACCTAGTGCAG”, the figure is 8270 fluorescence intensity (a.u.).
As for “GCCTTCATTTCCACCCACTTGCCAACATCCATCTTTTCCGCGGAGTCACCTAGTGCAG”, the figure is 9910 fluorescence intensity (a.u.); as for “AACCGAAATCACTTTGGCAGCATGTTTTCCTCTGTAACCACGGAGTCACCTAGTGCAG”, 9350 fluorescence intensity (a.u.).
The value for “AAAGATTACTTCTCAGATCATGCCCTATTCAGACTATTTTCGGAGTCACCTAGTGCAG” was 8570 fluorescence intensity (a.u.).
Regarding “CGCACTCACTGCCGACGCCATCCTCGATCTCCCTCGCACCCGGAGTCACCTAGTGCAG”, the binding signal was 8540 fluorescence intensity (a.u.).
As for “TCTTGCTGGTACCAATTAACATGGGTATGTTTAATTTGCTCGGAGTCACCTAGTGCAG”, the figure is 8230 fluorescence intensity (a.u.); as for “GCCCACTCGTCACTGACTCTGTACTAGTACCCACGCCACGCGGAGTCACCTAGTGCAG”, 13900 fluorescence intensity (a.u.); as for “AGCCTGTTCACTTTGATGCCATTTTCTGATAAAGTTGCTACGGAGTCACCTAGTGCAG”, 9600 fluorescence intensity (a.u.).
As for “ATCTATTACAATCATCTCGATTTTAGTTTTTCTAGTTCCTCGGAGTCACCTAGTGCAG”, the figure is 8920 fluorescence intensity (a.u.); as for “AATCGTTTTCTTTCTTGTCTTCAAACTTATTTTCCCGTTTCGGAGTCACCTAGTGCAG”, 9600 fluorescence intensity (a.u.).
On to “CTGATTTCTTAATTTCCGGCTTCTAATTTGTTTTTCAATTCGGAGTCACCTAGTGCAG”, for which the binding signal was 10900 fluorescence intensity (a.u.).
Turning to “CTCGCCCTCAACTCCGCCCGCGTCTCCGCCGCCTTCCACGCGGAGTCACCTAGTGCAG”, the binding signal is 10500 fluorescence intensity (a.u.).
The value for “CGCGCCGCCGCTCTCTCTCTCTCTCTCTCTCTCTCTCTCTCGGAGTCACCTAGTGCAG” was 8820 fluorescence intensity (a.u.); that for “GGATTGATAGTCTTGAGGAGGTTCTTGTTCAGCTTTTTAGCGGAGTCACCTAGTGCAG” was 9440 fluorescence intensity (a.u.).
The value for “TTGTCCTTCGGTCAGCACCGACGCCGCCGTCTCGCTCGCTCGGAGTCACCTAGTGCAG” was 8210 fluorescence intensity (a.u.).
As for “ATCCAACTGGTCCAACTCCTCCAATCGTTTGCTTCTTCTTCGGAGTCACCTAGTGCAG”, the figure is 8960 fluorescence intensity (a.u.); as for “TTAGCTTCACCCCTAGTGTTCACAATTACGGCTAACTATTCGGAGTCACCTAGTGCAG”, 8750 fluorescence intensity (a.u.).
“CACACATAATTCCATCACATCGTTTCAATTTTAATGAAACCGGAGTCACCTAGTGCAG”: the binding signal is 8130 fluorescence intensity (a.u.).
The value for “GTGACTCTTCTGTCCACTGCACACGCCGTTTTGAAATTTCCGGAGTCACCTAGTGCAG” was 10600 fluorescence intensity (a.u.).
